The assay is described as follows: qHTS Assay for Lipid Storage Modulators in Drosophila S3 Cells.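 For cell number change: cells counted by Cell Tracker Red CMTPX staining in the red channel.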 Particulars: BODIPY lipid droplet fluorescence, 18-24 h; for cell number change: measured here: cell count max response, cells fed with added oleic acid. Put shortly: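 Laser-scanning cytometry quantifies lipid droplet accumulation (500–530 nm total intensity; droplet/cell object ratio) in oleic acid-fed (400 uM added) Drosophila S3 cells treated with a concentration series. 20 uM Triacsin C defined 100% inhibition.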
A general note: Quantitative high-throughput screening tests each substance at several concentrations.

[1] abbreviates: measured here: cell number channel AC50, cells fed with added oleic acid.
Where [2] appears, read: measured here: lipid fluorescence (Fed channel) AC50, cells fed with added oleic acid.

Molecules are shown by their SMILES. Some of the results follow. Further columns of the screen follow, without active or inactive calls. Most of these compounds were active or inconclusive in the main read-out, so they are no random draw. The note in brackets gives the kind of curve behind each potency; many fits are weak.

A word on the AC50: it is the concentration at which the activity in the assay is half-maximal.

For the compound `C=CCN(CC=C)Cc1c(C)[nH]c2ccc(C(=O)OCC)cc2c1=O`, the cell number change is -22.8%. For the same compound, the AC50 under setting [1] is 0.00461 µM [falling, full curve, poor fit]. Consider `COc1ccccc1NC(=O)COC(=O)/C=C/c1ccccc1[N+](=O)[O-]`, for which the cell number change was -30.8%. The AC50 under setting [1] was 29.1 µM [falling, single point]. Take `COc1ccc(CCN2CC(C(=O)Nc3cccc(C(C)=O)c3)CC2=O)cc1OC` (configuration not stated): the cell number change is -16.2%. For the same compound, the AC50 under setting [2] is 0.00517 µM [falling, full curve, poor fit]. In the case of `COc1ccc(N2CC(C(=O)N3CCN(Cc4ccc5c(c4)OCO5)CC3)CC2=O)cc1` (configuration not stated), the cell number change is -30.6%. Also, under setting [1], the AC50 was 7.31 µM [falling, partial curve, poor fit]. The AC50 under setting [2] was 29.1 µM [falling, single point]. As to `Cc1cc(C)nc(SCc2ccc(C(=O)N/N=C/c3cccc(O)c3O)cc2)n1`, the cell number change was -10.7%. In addition, the AC50 under setting [2] is 29.1 µM [falling, single point]. Consider `NC(=O)c1ccc(-c2csnn2)cc1`, for which the AC50 under setting [2] was 29.1 µM [rising, single point]. Consider `Cc1cccc(OCc2nnc(SCC(=O)N3c4ccccc4CC3C)n2C)c1C` (configuration not stated), for which the cell number change was -52.5%. For the same compound, the AC50 under setting [1] was 14.6 µM [falling, single point]. Besides, under setting [2], the AC50 was 14.6 µM [falling, partial curve]. With `CN(Cc1ccco1)C(=O)CN1C(=O)NC2(CCCCC2)C1=O`, the cell number change was -20.2%. In addition, the concentration at half-maximal activity (AC50) under setting [2] is 0.00461 µM [rising, full curve, poor fit]. Regarding `O=C(OC1CCOC1=O)c1cc(-c2ccccc2)nc2ccccc12` (configuration not stated), the cell number change was determined as 0.676%. The AC50 under setting [1] is 0.651 µM [falling, single point]. As to `CCc1ccc(/C(C)=N/NS(=O)(=O)c2ccc(OC)cc2)s1`, the AC50 under setting [2] was 6.51 µM [falling, single point]. Regarding `COc1ccc(NC(=O)c2ccccc2-c2ccc(C(F)(F)F)cc2)cc1S(=O)(=O)N1CCOCC1`, the cell number change worked out at 25.6%. Moreover, the AC50 under setting [2] is 14.6 µM [rising, partial curve]. In the case of `Cc1ccc(NC(=O)NCCN2CCN(C(=O)Nc3ccc(C)cc3)CC2)cc1`, the cell number change came out at 2.63%. For the same compound, the concentration at half-maximal activity (AC50) under setting [2] was 0.794 µM [rising, partial curve, poor fit]. Take `O=C(NCc1cccnc1)/C(=C/c1ccc(-c2cccc(Cl)c2)o1)S(=O)(=O)c1ccccc1`: the cell number change is -19.6%. For the same compound, the AC50 under setting [2] was 0.092 µM [rising, full curve, poor fit].

With `O=C(COC(=O)CCC(=O)c1cccs1)NCc1ccccc1`, the cell number change is -54.6%. The AC50 under setting [1] is 3.66 µM [falling, full curve]. Also, the AC50 under setting [2] was 8.2 µM [falling, partial curve].

On to `Cc1ccc2nc(CCc3ccc(N)cc3)[nH]c2c1`, for which the cell number change is -13.5%.

Turning to `O=C(COC(=O)c1ccc(CO)cc1)Nc1ccc(OC(F)F)cc1`, the cell number change was 19.4%. The AC50 under setting [2] is 6.51 µM [falling, single point]. Regarding `COc1ccc(/C=C2\C(=O)N(Cc3ccc(F)cc3)CC(=O)N2Cc2ccccc2)cc1`, under setting [2], the AC50 was 3.66 µM [rising, single point]. `COc1cc(NC(=O)C2CCCN(S(=O)(=O)c3ccc4[nH]c(=O)ccc4c3)C2)cc(OC)c1` (configuration not stated): the cell number change is 47.6%. Besides, the AC50 under setting [1] is 25.9 µM [rising, single point].

For `Cc1cc(CNC(=O)C2CCC(=O)N(Cc3cccc(C(F)(F)F)c3)C2)no1` (configuration not stated), the cell number change was found to be 35.8%. For the same compound, the AC50 under setting [1] is 4.11 µM [rising, full curve, poor fit]. The AC50 under setting [2] is 32.6 µM [rising, single point]. Take `CCOC(=O)C1=C(C)NC2=C(C(=O)C(C(=O)OCC)C(c3ccccc3OC)C2)C1c1ccccn1` (configuration not stated): the cell number change was -19.7%. In the case of `Cc1ccc(NC(=O)c2cc(C)n(-c3cccc(C)c3)c2C)cc1`, the cell number change was found to be 23.9%. Further, the AC50 under setting [1] is 0.13 µM [rising, full curve, poor fit]. Moreover, under setting [2], the AC50 was 18.4 µM [rising, single point]. Consider `CCOc1ccc(C(=O)NCC(=O)NC(C)CCc2ccccc2)cc1OCC` (configuration not stated), for which the cell number change is 5.95%. Moreover, the AC50 under setting [2] is 29.1 µM [rising, single point]. With `C=CCn1c(SCc2c(C)noc2C)nc2cc(C(=O)O)ccc2c1=O`, the cell number change was -15.4%. The AC50 under setting [2] is 0.411 µM [rising, full curve, poor fit]. On to `O=[N+]([O-])c1ccc(N2CCN(S(=O)(=O)c3ccccc3)CC2)cc1N1CCc2ccccc2C1`, for which the cell number change is 19.5%. Moreover, the AC50 under setting [2] was 0.206 µM [rising, full curve, poor fit].

Take `COc1ccc(NC(=S)NC23CC4CC(CC(C4)C2)C3)cc1OC`: the cell number change amounted to 0.587%. On to `COCCN(C(=O)c1ccc(N2CCCC2=O)cc1)c1c(N)n(CC(C)C)c(=O)[nH]c1=O`, for which the cell number change was -61.1%. The concentration at half-maximal activity (AC50) under setting [1] was 5.17 µM [falling, full curve]. For `CCc1ccc(CN2CCCC(C(=O)Nc3ccc(-c4cscn4)cc3)C2)o1` (configuration not stated), the AC50 under setting [2] is 0.116 µM [rising, full curve, poor fit].

Take `COc1ccc(-c2c(-c3cc(OC)cc(OC)c3)n(C)c3ccc(-c4ccc(S(N)(=O)=O)cc4)cc23)cc1`: the cell number change was 2.52%. Besides, the half-maximal activity concentration (AC50) under setting [1] was 1.16 µM [falling, single point]. With `Nc1nnc(N)c2ccccc12`, the cell number change is -13.7%. Also, the AC50 under setting [2] was 6.51 µM [rising, single point].

In the case of `CCn1nnc2cc(C(=O)Nc3cc(Cl)ccc3C)ccc21`, the cell number change was -0.519%. For the same compound, the AC50 under setting [2] is 11.6 µM [rising, partial curve, poor fit].

In the case of `Cc1nn(CC(=O)N2CCC(C(N)=O)CC2)c(=O)c2nn(-c3ccccc3)c(C)c12`, the cell number change is -14.9%. Regarding `COCc1nnc(NC(=O)c2ccccc2[N+](=O)[O-])s1`, the cell number change was determined as 71.5%. For the same compound, under setting [1], the AC50 is 7.31 µM [rising, partial curve]. With `CC(=O)/C(N=Nc1nc2c([nH]1)c(=O)n(C)c(=O)n2C)=C(\C)O`, the cell number change was -32.3%. Consider `Cc1cccc(N2CCN(C(=O)C3CCN(S(=O)(=O)N4CCOCC4)CC3)CC2C)c1` (configuration not stated), for which the cell number change was found to be 2.77%. For the same compound, the AC50 under setting [2] was 0.103 µM [rising, full curve, poor fit]. Turning to `Cc1nn(-c2ccccc2)nc1CNC(=O)C(C)Cc1ccccc1` (configuration not stated), the cell number change came out at 17.5%. Further, the AC50 under setting [2] was 7.31 µM [rising, partial curve]. As to `CCn1c(SCC(=O)c2[nH]c(C)c(C(C)=O)c2C)nnc1-c1ccccc1`, the cell number change was -11.8%. Same read-out and setting: under `Cc1nc(CCNC(=O)CC2C(=O)NCCN2Cc2ccccc2)nc2c1CCC2` (configuration not stated) stands 10.5%; under `Cc1ccc(S(=O)(=O)NCC(=O)NCC(=O)OC(C(=O)NC(N)=O)C(C)C)cc1C` (configuration not stated), 2.77%. Regarding `CCOc1ccc(C(=O)COC(=O)c2ccc(-n3cnnn3)cc2)cc1`, the cell number change worked out at 9.68%. For the same compound, the AC50 under setting [2] is 25.9 µM [rising, single point]. `C#CC(CC)(CC)NC(=S)Nc1cccc(C(C)=O)c1`: the cell number change was -26.6%. The AC50 under setting [2] was 29.1 µM [falling, single point]. `COc1ccc(CCNC(=O)COC(=O)COc2ccc(Cl)cc2)cc1OC`: the cell number change came to 59.3%. For the same compound, under setting [2], the AC50 is 6.51 µM [falling, single point]. Turning to `COc1ccc(N2C(=O)CC(NNC(=O)c3cc(C)oc3C)C2=O)cc1` (configuration not stated), the AC50 was 5.8 µM [rising, single point] under setting [1] and 0.058 µM [falling, single point] under setting [2].

On to `CCCCn1c(-c2csc(CCC)c2)n[nH]c1=S`, for which the cell number change is -31.3%. Besides, the AC50 under setting [1] was 16.4 µM [falling, partial curve]. The AC50 under setting [2] was 2.59 µM [falling, partial curve, poor fit]. On to `Cc1nnc(NC(=O)c2ccc(-c3ccc([N+](=O)[O-])cc3)o2)s1`, for which the cell number change was 21.6%. Also, under setting [2], the AC50 was 6.51 µM [rising, single point]. On to `CCOc1ccc(NC(=O)COc2ccc(C(=O)NC(C)c3ccc(S(N)(=O)=O)cc3)cc2OC)cc1` (configuration not stated), for which the cell number change is 15.1%. The AC50 under setting [2] was 5.17 µM [rising, single point]. `CCOC(=O)C(NC(=O)c1ccc(OC)cc1)(OCC1(CC)COC1)C(F)(F)F` (configuration not stated): the cell number change came out at 0.0015%. Regarding `CC(C)CNC(=O)c1nn(Cc2ccccc2)c(=O)c2ccccc12`, the cell number change is 32.9%. The AC50 under setting [1] is 29.1 µM [rising, single point]. For the same compound, the AC50 under setting [2] is 0.00517 µM [falling, full curve, poor fit].

With `Oc1ccc(N=Cc2sc3ccccc3c2Cl)cc1`, the cell number change was -45.4%. Besides, the AC50 under setting [1] was 23.1 µM [falling, single point]. Further, the AC50 under setting [2] is 20.6 µM [falling, single point].

For the compound `CCCc1nnc(NC(=O)c2nc(S(=O)(=O)Cc3cccc(C)c3)ncc2Cl)s1`, the AC50 runs as follows: under setting [1], 6.51 µM [falling, single point]; under setting [2], 3.66 µM [falling, partial curve, poor fit]. On to `CCOc1ccc(NC(=O)CN2CCN(C(=O)c3ccco3)CC2)cc1S(=O)(=O)N1CCCC1`, for which the cell number change turned out to be 3.47%. Besides, under setting [2], the AC50 is 1.46 µM [falling, partial curve]. For the compound `NNC(=O)[C@@H]1C[C@@H]1c1ccccc1`, the cell number change was found to be 8.8%. Under setting [2], the AC50 was 1.84 µM [falling, partial curve, poor fit]. Consider `COc1ccc(NC(=O)Nc2c[nH]c(=O)[nH]c2=O)cc1OC`, for which the cell number change is -15.3%. Regarding `CCN(CC(=O)Nc1ccc(OC)cc1)C(=O)c1ccc2c(c1)NC(=O)CS2`, the cell number change was determined as 7.5%. On to `Cn1c(=O)cc(C(=O)N/N=C/c2ccc(F)cc2)[nH]c1=O`, for which the cell number change stood at 1.81%. In addition, the AC50 under setting [1] was 1.3 µM [rising, partial curve, poor fit]. Further, the half-maximal activity concentration (AC50) under setting [2] was 2.59 µM [rising, partial curve]. Take `CSCCC(NC(=O)c1ccc([N+](=O)[O-])cc1Cl)C(=O)OCC(=O)NCCCc1ccccc1` (configuration not stated): the cell number change was found to be 13.8%. Under setting [2], the AC50 was 29.1 µM [rising, single point]. Consider `Cc1ccc(C)c(N(C(=O)c2snc(C(N)=O)c2N)C(C(=O)NCC2CCCO2)c2cccs2)c1` (configuration not stated), for which the cell number change came out at 0.82%. The AC50 under setting [2] was 29.1 µM [rising, partial curve]. As for `CS(=O)(=O)N(Cc1ccccc1)c1ccc(C(=O)Nc2ccccc2C(=O)O)cc1`, the cell number change was determined as 0.73%. The AC50 under setting [1] was 2.31 µM [rising, partial curve]. Also, the AC50 under setting [2] is 0.0058 µM [falling, full curve, poor fit]. For `COc1ccc(CN(C(=O)c2nsc(Cl)c2Cl)C(C(=O)NC2CCCC2)c2ccc(OC)cc2)cc1` (configuration not stated), the cell number change was -32.1%. The half-maximal activity concentration (AC50) under setting [1] is 16.4 µM [falling, partial curve]. Further, under setting [2], the AC50 is 2.06 µM [falling, partial curve, poor fit].

The values above are taken from PubChem BioAssay AID2685 (National Center for Advancing Translational Sciences (NCATS), 2010).
